Laboratory results as given in patent publication US7097982 (IMMUNOGEN, dated 2006).
Results are given in words; binding and its absence hold for the method and conditions named. Binding seen in cells or lysates may run through a third protein. Some results given as binding are weak or reduced against the parent protein; the word gives no strength.

Chains of the proteins cited; added tags and fusions are not shown.
UniProt Q07817: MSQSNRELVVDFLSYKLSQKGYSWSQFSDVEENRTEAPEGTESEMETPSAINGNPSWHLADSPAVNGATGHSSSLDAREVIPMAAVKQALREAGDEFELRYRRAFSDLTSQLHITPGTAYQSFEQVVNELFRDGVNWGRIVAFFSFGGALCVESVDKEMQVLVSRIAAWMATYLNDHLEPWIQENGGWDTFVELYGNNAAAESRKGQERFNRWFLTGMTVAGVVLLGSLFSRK

Legend:
[1] = target: T1, Flag tag-Bcl-xL (UniProt Q07817 1-233); test: co-immunoprecipitation from transfected cells
T1 construct: Expressed in transfected COS cells; also called Flag-Bcl-xL

[2] = target: T1, Flag tag-Bcl-xL; test: co-immunoprecipitation from transfected COS cells

B1: Bip1a (other, UniProt Q13323 1-160, looked up)
chain: MSEVRPLSRDILMETLLYEQLLEPPTMEVLGMTDSEEDLDPMEDFDSLECMEGSDALALRLACIGDEMDVSLRAPRLAQLSEVAMHSLGLAFIYDQTEDIRDVLRSFMDGFTTLKENIMRFWRSPNPGSWVSCEQVLLALLLLLALLLPLLSGGLHLLLK
notes: Used in vitro translated and 35S labeled, and expressed in transfected COS cells; also called in vitro translated, 35S labeled Bip1a
With B1 the binding [1] was “binds” and the binding [2] was “binds”.
